Experimental findings from PMC8129794 are described below.

The chains behind the UniProt entries cited, without tags or fusion partners.
UniProt Q93034: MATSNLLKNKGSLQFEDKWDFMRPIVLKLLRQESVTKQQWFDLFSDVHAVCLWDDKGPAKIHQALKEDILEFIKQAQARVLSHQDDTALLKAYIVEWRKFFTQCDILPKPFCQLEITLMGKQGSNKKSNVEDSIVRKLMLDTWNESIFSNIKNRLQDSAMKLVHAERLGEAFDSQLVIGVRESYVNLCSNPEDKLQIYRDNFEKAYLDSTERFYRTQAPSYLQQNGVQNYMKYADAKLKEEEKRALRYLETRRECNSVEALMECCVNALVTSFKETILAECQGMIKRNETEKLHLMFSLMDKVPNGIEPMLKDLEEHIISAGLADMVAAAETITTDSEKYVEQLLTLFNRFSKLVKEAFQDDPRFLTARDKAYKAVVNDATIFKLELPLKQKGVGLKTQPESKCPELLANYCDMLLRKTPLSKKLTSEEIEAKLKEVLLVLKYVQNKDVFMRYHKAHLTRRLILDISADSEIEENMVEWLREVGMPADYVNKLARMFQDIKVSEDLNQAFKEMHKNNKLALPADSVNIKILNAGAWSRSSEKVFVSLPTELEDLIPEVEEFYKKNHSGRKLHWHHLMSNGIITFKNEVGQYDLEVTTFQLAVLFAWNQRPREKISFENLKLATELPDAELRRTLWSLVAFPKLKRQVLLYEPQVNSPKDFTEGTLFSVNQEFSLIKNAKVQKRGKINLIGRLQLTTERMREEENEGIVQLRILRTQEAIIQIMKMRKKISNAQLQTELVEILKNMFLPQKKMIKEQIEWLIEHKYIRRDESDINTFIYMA
UniProt O60610: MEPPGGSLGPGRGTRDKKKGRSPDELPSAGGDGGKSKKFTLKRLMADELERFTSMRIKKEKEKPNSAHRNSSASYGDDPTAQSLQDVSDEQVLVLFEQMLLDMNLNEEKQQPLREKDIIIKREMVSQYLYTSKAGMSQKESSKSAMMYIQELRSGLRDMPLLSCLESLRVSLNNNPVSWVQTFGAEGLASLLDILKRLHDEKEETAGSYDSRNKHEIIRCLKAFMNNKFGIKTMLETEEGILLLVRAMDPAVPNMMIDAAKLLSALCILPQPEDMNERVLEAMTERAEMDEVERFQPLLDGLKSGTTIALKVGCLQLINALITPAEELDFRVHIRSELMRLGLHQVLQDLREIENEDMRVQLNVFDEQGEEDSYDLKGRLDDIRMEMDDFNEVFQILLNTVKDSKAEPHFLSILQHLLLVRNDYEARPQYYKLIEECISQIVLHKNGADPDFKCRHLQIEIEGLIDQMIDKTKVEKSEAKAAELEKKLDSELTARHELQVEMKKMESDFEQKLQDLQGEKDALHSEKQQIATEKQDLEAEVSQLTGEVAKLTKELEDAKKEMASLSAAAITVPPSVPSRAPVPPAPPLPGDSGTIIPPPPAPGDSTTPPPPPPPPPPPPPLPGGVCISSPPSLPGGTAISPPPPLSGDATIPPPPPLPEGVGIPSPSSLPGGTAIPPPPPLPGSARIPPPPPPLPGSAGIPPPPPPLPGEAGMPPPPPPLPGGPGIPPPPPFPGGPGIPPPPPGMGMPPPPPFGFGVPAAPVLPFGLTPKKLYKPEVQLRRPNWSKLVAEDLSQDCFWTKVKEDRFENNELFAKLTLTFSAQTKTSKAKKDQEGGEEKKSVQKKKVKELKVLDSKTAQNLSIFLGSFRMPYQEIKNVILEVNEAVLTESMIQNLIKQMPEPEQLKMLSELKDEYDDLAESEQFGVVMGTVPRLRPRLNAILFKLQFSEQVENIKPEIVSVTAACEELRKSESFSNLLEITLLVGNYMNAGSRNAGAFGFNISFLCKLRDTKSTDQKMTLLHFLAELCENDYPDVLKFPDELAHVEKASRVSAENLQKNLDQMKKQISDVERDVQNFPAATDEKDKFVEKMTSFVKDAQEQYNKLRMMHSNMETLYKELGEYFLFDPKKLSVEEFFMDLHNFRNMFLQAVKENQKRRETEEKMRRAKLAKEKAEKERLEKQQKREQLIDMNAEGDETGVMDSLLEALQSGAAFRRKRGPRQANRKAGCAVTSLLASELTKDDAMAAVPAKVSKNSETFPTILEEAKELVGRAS
UniProt Q9UHB6: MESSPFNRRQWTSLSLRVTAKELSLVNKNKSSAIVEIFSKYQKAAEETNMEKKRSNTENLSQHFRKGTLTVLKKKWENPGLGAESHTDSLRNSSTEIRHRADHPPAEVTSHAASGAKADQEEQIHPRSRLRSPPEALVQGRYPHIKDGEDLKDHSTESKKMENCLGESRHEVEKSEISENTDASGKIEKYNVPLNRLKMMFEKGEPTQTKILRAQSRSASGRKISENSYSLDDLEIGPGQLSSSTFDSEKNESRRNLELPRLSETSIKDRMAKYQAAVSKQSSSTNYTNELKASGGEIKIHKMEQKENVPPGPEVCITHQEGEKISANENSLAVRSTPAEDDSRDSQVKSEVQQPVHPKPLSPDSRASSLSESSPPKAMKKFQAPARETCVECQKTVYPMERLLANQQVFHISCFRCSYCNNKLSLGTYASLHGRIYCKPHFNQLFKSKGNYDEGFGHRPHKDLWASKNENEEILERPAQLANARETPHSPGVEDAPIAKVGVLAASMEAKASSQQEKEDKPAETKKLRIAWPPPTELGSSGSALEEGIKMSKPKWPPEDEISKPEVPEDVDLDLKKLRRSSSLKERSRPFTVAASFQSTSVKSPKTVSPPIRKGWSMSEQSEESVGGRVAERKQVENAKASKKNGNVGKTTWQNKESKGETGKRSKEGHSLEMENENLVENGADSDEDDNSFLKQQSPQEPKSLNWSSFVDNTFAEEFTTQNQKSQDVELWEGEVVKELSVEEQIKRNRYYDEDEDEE
UniProt Q15370: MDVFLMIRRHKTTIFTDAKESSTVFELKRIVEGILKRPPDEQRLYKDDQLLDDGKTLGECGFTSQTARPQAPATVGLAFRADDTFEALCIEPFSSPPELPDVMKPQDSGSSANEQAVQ
UniProt Q9UBF6: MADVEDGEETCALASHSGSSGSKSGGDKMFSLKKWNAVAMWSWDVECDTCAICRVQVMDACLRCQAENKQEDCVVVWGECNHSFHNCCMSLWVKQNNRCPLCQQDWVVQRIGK

Like-named read-outs stand apart in the source and are kept apart here. No constants are given. Whether binding was seen depends on the method and setting. Binding seen in cells or lysates may run through a third protein. A yes stands for co-enrichment or nearness to the bait. Other partners may have been found. Where a sequence is shown, tags or fusion partners need not be part of it.

Experiment [1] concerns the target T1, FLAG-Rab40b (UniProt Q12829).
T1 sequence: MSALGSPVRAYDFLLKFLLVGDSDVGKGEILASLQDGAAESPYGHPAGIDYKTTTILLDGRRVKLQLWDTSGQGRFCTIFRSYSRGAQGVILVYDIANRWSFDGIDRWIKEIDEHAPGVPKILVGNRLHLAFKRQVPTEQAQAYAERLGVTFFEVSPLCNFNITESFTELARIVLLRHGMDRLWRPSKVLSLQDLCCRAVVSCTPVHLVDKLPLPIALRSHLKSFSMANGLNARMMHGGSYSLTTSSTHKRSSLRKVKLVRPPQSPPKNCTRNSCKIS
The experiment is described as follows: affinity purification with mass spectrometry; anti-FLAG antibody beads (control IgG beads) on Triton X-100 lysate of MDA-MB-231 stably expressing FLAG-Rab40b, in the presence of GDP or GTPgammaS; PBS, 1% Triton X-100.

For experiment [2], the target named is T1, FLAG-Rab40b. Nature of the experiment: affinity purification with mass spectrometry; FLAG beads on lysates of MDA-MB-231 expressing WT FLAG-Rab40b or FLAG-Rab40b-4A; two independent experiments; hits over IgG control.
For experiment [3], the target named is T2, FLAG-Rab40b-4A (UniProt Q12829).
T2 sequence: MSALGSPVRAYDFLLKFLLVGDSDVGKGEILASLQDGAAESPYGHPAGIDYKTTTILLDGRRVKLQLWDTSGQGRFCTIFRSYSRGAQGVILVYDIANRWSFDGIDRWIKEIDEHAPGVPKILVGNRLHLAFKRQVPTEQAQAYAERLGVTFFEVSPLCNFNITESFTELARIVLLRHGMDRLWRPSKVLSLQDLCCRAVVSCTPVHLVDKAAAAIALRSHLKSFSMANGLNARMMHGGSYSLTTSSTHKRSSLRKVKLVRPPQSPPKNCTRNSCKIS
The experiment is described as above.

For experiment [4], the target named is T2, FLAG-Rab40b-4A. The description is as above. The source holds these as a separate data set.

Take Cullin5 (from UniProt Q93034 1-780): the binding result in the experiment with FLAG-Rab40b [1] and with FLAG-Rab40b [2] was “binds” each time. Regarding DIAPH1 (from UniProt O60610 1-1272), in the experiment with FLAG-Rab40b-4A [3], the binding entry is on record as “binds”. “EPLIN (epithelial protein lost in neoplasia) (from UniProt Q9UHB6 1-759)”: the binding entry with FLAG-Rab40b-4A [3] was “binds”. Consider Elongin B (from UniProt Q15370 1-118), for which the binding entry in the experiment with FLAG-Rab40b [1] and with FLAG-Rab40b [2] was “binds” each time. In the case of Rbx2 (from UniProt Q9UBF6 1-113), the binding result with FLAG-Rab40b [2] was “binds”.

B1: ARHGAP19 (protein, UniProt Q14CB8 1-494)
chain: MATEAQSEGEVPARESGRSDAICSFVICNDSSLRGQPIIFNPDFFVEKLRHEKPEIFTELVVSNITRLIDLPGTELAQLMGEVDLKLPGGAGPASGFFRSLMSLKRKEKGVIFGSPLTEEGIAQIYQLIEYLHKNLRVEGLFRVPGNSVRQQILRDALNNGTDIDLESGEFHSNDVATLLKMFLGELPEPLLTHKHFNAHLKIADLMQFDDKGNKTNIPDKDRQIEALQLLFLILPPPNRNLLKLLLDLLYQTAKKQDKNKMSAYNLALMFAPHVLWPKNVTANDLQENITKLNSGMAFMIKHSQKLFKAPAYIRECARLHYLGSRTQASKDDLDLIASCHTKSFQLAKSQKRNRVDSCPHQEETQHHTEEALRELFQHVHDMPESAKKKQLIRQFNKQSLTQTPGREPSTSQVQKRARSRSFSGLIKRKVLGNQMMSEKKKKNPTPESVAIGELKGTSKENRNLLFSGSPAVTMTPTRLKWSEGKKEGKKGFL
Regarding B1, in the experiment with FLAG-Rab40b-4A [4], the binding entry was “binds”.

B2: ARHGAP42 (protein, UniProt A6NI28 1-874)
chain: MGLPTLEFSDSYLDSPDFRERLQCHEIELERTNKFIKELIKDGSLLIGALRNLSMAVQKFSQSLQDFQFECIGDAETDDEISIAQSLKEFARLLIAVEEERRRLIQNANDVLIAPLEKFRKEQIGAAKDGKKKFDKESEKYYSILEKHLNLSAKKKESHLQEADTQIDREHQNFYEASLEYVFKIQEVQEKKKFEFVEPLLSFLQGLFTFYHEGYELAQEFAPYKQQLQFNLQNTRNNFESTRQEVERLMQRMKSANQDYRPPSQWTMEGYLYVQEKRPLGFTWIKHYCTYDKGSKTFTMSVSEMKSSGKMNGLVTSSPEMFKLKSCIRRKTDSIDKRFCFDIEVVERHGIITLQAFSEANRKLWLEAMDGKEPIYTLPAIISKKEEMYLNEAGFNFVRKCIQAVETRGITILGLYRIGGVNSKVQKLMNTTFSPKSPPDIDIDIELWDNKTITSGLKNYLRCLAEPLMTYKLHKDFIIAVKSDDQNYRVEAVHALVHKLPEKNREMLDILIKHLVKVSLHSQQNLMTVSNLGVIFGPTLMRAQEETVAAMMNIKFQNIVVEILIEHYEKIFHTAPDPSIPLPQPQSRSGSRRTRAICLSTGSRKPRGRYTPCLAEPDSDSYSSSPDSTPMGSIESLSSHSSEQNSTTKSASCQPREKSGGIPWIATPSSSNGQKSLGLWTTSPESSSREDATKTDAESDCQSVASVTSPGDVSPPIDLVKKEPYGLSGLKRASASSLRSISAAEGNKSYSGSIQSLTSVGSKETPKASPNPDLPPKMCRRLRLDTASSNGYQRPGSVVAAKAQLFENVGSPKPVSSGRQAKAMYSCKAEHSHELSFPQGAIFSNVYPSVEPGWLKATYEGKTGLVPENYVVFL
Turning to B2, the binding result with FLAG-Rab40b-4A [4] is “binds”.
